These are yes or no findings as the source states them, for the method shown. Some results given as binding are weak or reduced against the parent protein; the word gives no strength.
Target: T1, IRF3 (endogenous, MEF cells) (mouse (endogenous in MEF cells)), P70671
T1 chain: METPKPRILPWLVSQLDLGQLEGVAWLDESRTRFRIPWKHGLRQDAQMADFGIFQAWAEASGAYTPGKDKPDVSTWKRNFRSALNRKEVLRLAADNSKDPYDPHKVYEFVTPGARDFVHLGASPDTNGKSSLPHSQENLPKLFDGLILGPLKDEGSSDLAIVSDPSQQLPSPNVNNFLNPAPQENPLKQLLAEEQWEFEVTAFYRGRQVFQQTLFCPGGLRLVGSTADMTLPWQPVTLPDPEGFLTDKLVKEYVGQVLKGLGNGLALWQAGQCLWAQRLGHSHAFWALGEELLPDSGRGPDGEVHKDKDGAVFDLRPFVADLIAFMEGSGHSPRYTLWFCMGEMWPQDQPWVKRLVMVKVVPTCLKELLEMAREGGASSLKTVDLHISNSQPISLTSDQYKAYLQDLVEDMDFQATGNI
Experiment: native gel or EMSA
Conditions: remark: other sources report otherwise

binding: binds
B1: IRF3 (endogenous, MEF cells), P70671 1-419 (protein)
chain: METPKPRILPWLVSQLDLGQLEGVAWLDESRTRFRIPWKHGLRQDAQMADFGIFQAWAEASGAYTPGKDKPDVSTWKRNFRSALNRKEVLRLAADNSKDPYDPHKVYEFVTPGARDFVHLGASPDTNGKSSLPHSQENLPKLFDGLILGPLKDEGSSDLAIVSDPSQQLPSPNVNNFLNPAPQENPLKQLLAEEQWEFEVTAFYRGRQVFQQTLFCPGGLRLVGSTADMTLPWQPVTLPDPEGFLTDKLVKEYVGQVLKGLGNGLALWQAGQCLWAQRLGHSHAFWALGEELLPDSGRGPDGEVHKDKDGAVFDLRPFVADLIAFMEGSGHSPRYTLWFCMGEMWPQDQPWVKRLVMVKVVPTCLKELLEMAREGGASSLKTVDLHISNSQPISLTSDQYKAYLQDLVEDMDFQATGNI

From PMC2682567
